These are yes or no findings as the source states them, for the method shown. In cells and extracts the contact can be indirect. Some binding calls cover weakened binding; strength is not graded here.
Target: STAT3, NanoLuc or HaloTag fusion (UniProt P40763)
Test: FRET or BRET; NanoBRET in intact HEK293T cells co-transfected with NanoLuc and HaloTag fusions of DYRK1B and STAT3; HaloTag NanoBRET 618 Ligand; 37 °C/5% CO2; 450 nm donor and 610 nm acceptor filters

Amino acid sequences for entries named in this document (tags omitted).
UniProt P40763: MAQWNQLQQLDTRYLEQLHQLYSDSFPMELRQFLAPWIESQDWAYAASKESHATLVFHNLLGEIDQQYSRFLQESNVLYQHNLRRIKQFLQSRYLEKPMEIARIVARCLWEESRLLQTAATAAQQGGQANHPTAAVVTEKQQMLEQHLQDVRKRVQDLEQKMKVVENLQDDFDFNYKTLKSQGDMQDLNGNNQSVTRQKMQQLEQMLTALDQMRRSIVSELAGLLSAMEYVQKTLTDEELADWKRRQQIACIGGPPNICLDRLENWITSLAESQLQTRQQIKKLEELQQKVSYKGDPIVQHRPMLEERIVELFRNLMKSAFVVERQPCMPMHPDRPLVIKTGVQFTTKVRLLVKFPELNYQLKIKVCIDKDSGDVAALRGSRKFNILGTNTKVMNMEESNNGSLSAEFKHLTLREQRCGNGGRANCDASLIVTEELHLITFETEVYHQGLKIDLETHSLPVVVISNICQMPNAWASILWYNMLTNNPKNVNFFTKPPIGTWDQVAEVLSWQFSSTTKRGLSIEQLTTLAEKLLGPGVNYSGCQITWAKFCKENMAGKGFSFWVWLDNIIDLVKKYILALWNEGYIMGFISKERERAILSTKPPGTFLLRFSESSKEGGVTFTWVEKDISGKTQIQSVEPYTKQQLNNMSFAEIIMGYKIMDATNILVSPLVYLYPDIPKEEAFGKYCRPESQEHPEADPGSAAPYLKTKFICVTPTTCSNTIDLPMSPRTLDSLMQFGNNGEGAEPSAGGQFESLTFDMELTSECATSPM

For “dual-specificity regulated kinase 1B (DYRK1B), NanoLuc or HaloTag fusion (from UniProt Q9Y463-1 1-629) (enzyme)”, which binding is on record?
The binding was “binds”.
